In experiment [1] the target is FLAG-tagged CIN85 lacking SH3C (UniProt Q96B97). In words: co-IP.
The target in experiment [2] is FLAG-tagged CIN85 lacking SH3B (UniProt Q96B97). In words: co-IP.

The chains behind the UniProt entries cited, without tags or fusion partners. Where a name states a change or a piece, a line headed by the entry shows the natural chain unless it says otherwise.
UniProt Q96B97: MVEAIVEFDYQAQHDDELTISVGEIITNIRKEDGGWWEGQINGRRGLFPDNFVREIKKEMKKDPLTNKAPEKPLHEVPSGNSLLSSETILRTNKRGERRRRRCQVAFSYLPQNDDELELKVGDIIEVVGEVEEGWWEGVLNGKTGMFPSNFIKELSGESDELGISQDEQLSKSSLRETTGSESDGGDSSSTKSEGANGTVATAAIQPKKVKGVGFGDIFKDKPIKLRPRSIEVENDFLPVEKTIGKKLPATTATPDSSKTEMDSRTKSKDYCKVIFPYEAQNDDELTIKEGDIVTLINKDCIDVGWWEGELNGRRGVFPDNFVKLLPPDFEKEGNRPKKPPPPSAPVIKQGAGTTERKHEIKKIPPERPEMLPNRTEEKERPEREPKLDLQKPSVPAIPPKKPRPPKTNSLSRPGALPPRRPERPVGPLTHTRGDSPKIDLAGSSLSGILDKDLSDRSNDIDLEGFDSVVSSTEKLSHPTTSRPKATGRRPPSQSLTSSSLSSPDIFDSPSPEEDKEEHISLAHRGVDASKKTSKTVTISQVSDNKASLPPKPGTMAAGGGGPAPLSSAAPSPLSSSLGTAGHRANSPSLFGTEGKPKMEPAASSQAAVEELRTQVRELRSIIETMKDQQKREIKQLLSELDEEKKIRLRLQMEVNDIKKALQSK
UniProt Q9GZT9: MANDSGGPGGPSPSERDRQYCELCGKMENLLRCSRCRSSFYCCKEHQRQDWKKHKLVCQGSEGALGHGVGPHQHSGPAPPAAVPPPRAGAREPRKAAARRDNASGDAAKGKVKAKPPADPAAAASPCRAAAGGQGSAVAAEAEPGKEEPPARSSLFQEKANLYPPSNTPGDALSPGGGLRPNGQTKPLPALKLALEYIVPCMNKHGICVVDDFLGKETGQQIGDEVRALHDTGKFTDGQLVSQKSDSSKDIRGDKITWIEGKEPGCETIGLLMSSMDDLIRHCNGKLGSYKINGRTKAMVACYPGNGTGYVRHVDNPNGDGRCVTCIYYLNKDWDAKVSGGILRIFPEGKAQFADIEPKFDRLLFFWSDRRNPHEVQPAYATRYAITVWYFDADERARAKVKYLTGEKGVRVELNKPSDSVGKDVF

These are yes or no findings as the source states them, for the method shown. In cells and extracts the contact can be indirect. Binding can be weak; no strength is given.

Take “V5-tagged wild-type PHD2 (from UniProt Q9GZT9 1-426) (enzyme)”: the binding entry in experiment [1] and in experiment [2] was “binds” throughout.

For the origin of these results see doi:10.1101/466946.
